From patent publication US20150238637A1, “Blood-brain Barrier Epitopes and Uses Thereof” (NATIONAL RESEARCH COUNCIL OF CANADA, priority 2005, published 2015)
For at least one compound, name, drawing or mass did not settle the structure.

Experiments:
[1] = tested on: HCEC monolayers; assay: Transport across the in vitro blood brain barrier model; format: cell-based, human
Description: HCEC (80,000 cells/membrane) were seeded on a 0.5% gelatin coated Falcon tissue culture inserts (pore size-1 μm; surface area 0.83 cm^2) in 1 ml of growth medium. The bottom chamber of the insert assembly contained 2 ml of growth medium supplemented with the fetal human astrocyte-conditioned medium in a 1:1 (v/v) ratio (Muruganandam et al., 1997).
Transport studies were performed 7 days post-seeding as described previously (Muruganandam et al., 1997; Muruganandam et al., 2002). […] The amount of FC5 transported across empty inserts or HCEC monolayers was determined by enzyme linked immunosorbent assay (ELISA) (see below). To control for HCEC membrane integrity and to estimate paracellular diffusion, the apical-to-basolateral and basolateral-to-apical clearance rates of [^14C]-sucrose were determined and calculated essentially as described previously (Muruganandam et al., 2002; Garberg et al., 2005) across the same monolayers used for FC5 transport studies. Sample-associated radioactivity in 50 μl aliquots was measured using a Mircobeta Trilux liquid scintillation counter (Wallac, Finland).
Clearance was calculated as Cl (ml)=CA/CI×VA, where CI is the initial tracer or sdAb concentration in the donor chamber, CA is the tracer or sdAb concentration in the accepter chamber, and VA is the volume of the acceptor chamber. […]

[2] = tested on: HCEC; assay: Uptake into human cerebromicrovascular endothelial cells (immunofluorescence); format: cell-based; details: sialic acid 200 μM; uptake over 30 minutes
Description: The uptake of FC5 into HCEC was tested 15-90 minutes after adding 5 μg/ml of FC5 in the absence or presence of various pharmacological modulators of endocytosis. To visualize the intracellular distribution of FC5, cells were fixed, permeabilized and probed with the anti-c-myc antibody (1:100; 1 hour) followed by incubation with FITC-labeled anti-mouse IgG (1:250; 1 hour).

Compound | effect on FC5 transcytosis across HCEC ([1]; sialic acid 200 μM, 30 minutes pretreatment) | effect on FC5 uptake into HCEC [2] | effect on FC5 transcytosis across HCEC ([1]; wortmannin 0.5 μM, 30 minutes pre-incubation)
CC(=O)N[C@H]1[C@H]([C@H](O)[C@H](O)CO)OC(O)(C(=O)O)C[C@@H]1O (stereo partly drawn) [sialic acid] | inhibited | inhibited | 
COC[C@H]1OC(=O)c2coc3c2[C@@]1(C)C1=C(C3=O)[C@@H]2CCC(=O)[C@@]2(C)C[C@H]1OC(C)=O [wortmannin] |  |  | almost completely blocked
